Experimental data as given in article PMC10008584, “Cryo-EM structures of human Cx36/GJD2 neuronal gap junction channel” (Nature Communications, 2023).
Results are given in words; binding and its absence hold for the method and conditions named. Some results given as binding are weak or reduced against the parent protein; the word gives no strength.

Sequences of proteins named here, by UniProt entry; tags and fusion partners are left off. A change or cut given only in a name is not applied to a line headed by its entry.
UniProt Q9UKL4: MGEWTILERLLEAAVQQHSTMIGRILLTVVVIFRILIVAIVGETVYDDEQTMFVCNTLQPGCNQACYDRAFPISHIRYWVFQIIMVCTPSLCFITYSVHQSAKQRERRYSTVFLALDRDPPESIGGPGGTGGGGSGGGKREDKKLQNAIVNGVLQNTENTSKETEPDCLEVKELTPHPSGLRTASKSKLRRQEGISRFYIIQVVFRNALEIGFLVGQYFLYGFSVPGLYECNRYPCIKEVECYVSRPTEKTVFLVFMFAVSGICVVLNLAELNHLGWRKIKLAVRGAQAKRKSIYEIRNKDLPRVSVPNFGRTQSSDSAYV

Tests used:
[1] = molecular target: C-terminally eYFP-tagged human Cx36-K238E (for FSEC) (human) (UniProt Q9UKL4); test: SEC; fluorescence-detection size-exclusion chromatography (FSEC) of eYFP-tagged Cx36 solubilised in 20 mM HEPES pH 7.5, 200 mM NaCl, 5 mM EDTA, 1% LMNG; soluble fraction on Superose 6 Increase 5/150 GL
[2] = molecular target: C-terminally eYFP-tagged human Cx36-WT (for FSEC) (human) (UniProt Q9UKL4); test: as above

Row | binding [1] | binding [2] | Substance
1 | binds |  | C-terminally eYFP-tagged human Cx36-K238E (for FSEC) (from UniProt Q9UKL4 1-321)
2 |  | binds | C-terminally eYFP-tagged human Cx36-WT (for FSEC) (from UniProt Q9UKL4 1-321)
